PubChem BioAssay AID504764, Drosophila RNAi Screening Center, 2011

Test: 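Knock-downs that raise or lower a Notch target reporter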 (primary screen)
System: Drosophila Kc167 cells
Knock-down reagent: long dsRNA against Drosophila genes
Timing: about 5 days (4 days dsRNA, then 24 h after transfection)
Treatment: transfection of constitutively active membrane-tethered Notch lacking the extracellular domain, read 24 h later
Measured: 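Light from a Notch-responsive E(spl)m3 luciferase reporter under active Notch, with control-promoter and no-Notch reporter wells to normalise; raw counts from paired wells a and b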
Scale: induced reporter light, run 1, well a and induced reporter light, run 1, well b: higher = more light from the Notch target reporter with active Notch; control promoter light, run 1, well a and control promoter light, run 1, well b: higher = more light from the viral control promoter (cell number, transfection, viability); uninduced reporter light, run 1, well a: higher = more light from the Notch target reporter without active Notch
Call rule: 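Wells with low control signal or poorly matching duplicates excluded; duplicates averaged; per source plate, z beyond ±2 for induced/control log2 ratio or beyond ±1.8 for induced/uninduced marks a hit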
Calls: active = modifier hit (raised or lowered Notch signal); inactive = not a hit
The deposit covers about 22,000 reagents; below is an unselected part of those with a known target gene and a result. In the full data, 403 (1.9%) got an active call. 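Unnormalised raw counts per well; ratio z-scores behind the hit calls and whether each hit raises or lowers signal are not deposited.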 Reagent sequences are not shown. Not given: the amount of reagent.

For Sgs8 [DRSC11282] the deposit lists induced reporter light, run 1, well a = 1.86e5; induced reporter light, run 1, well b = 1.51e5; control promoter light, run 1, well a = 2.31e5; control promoter light, run 1, well b = 1.73e5; uninduced reporter light, run 1, well a = 6970; inactive. After knock-down of mRpS14 [DRSC19444], the record shows induced reporter light, run 1, well a = 1.10e5; induced reporter light, run 1, well b = 1.16e5; control promoter light, run 1, well a = 1.07e5; control promoter light, run 1, well b = 1.39e5; uninduced reporter light, run 1, well a = 12660; inactive. With knock-down of CG30046 [DRSC06691], the screen gave induced reporter light, run 1, well a = 86350; induced reporter light, run 1, well b = 84970; control promoter light, run 1, well a = 1.12e5; control promoter light, run 1, well b = 1.19e5; uninduced reporter light, run 1, well a = 8130; inactive. After knock-down of ms(3)76Ba [DRSC10091] the results were induced reporter light, run 1, well a = 1.01e5; induced reporter light, run 1, well b = 96590; control promoter light, run 1, well a = 1.21e5; control promoter light, run 1, well b = 96355; uninduced reporter light, run 1, well a = 8910; inactive. Cpr50Ca [DRSC05454] scored induced reporter light, run 1, well a = 2.01e5; induced reporter light, run 1, well b = 1.68e5; control promoter light, run 1, well a = 2.51e5; control promoter light, run 1, well b = 2.51e5; uninduced reporter light, run 1, well a = 15360; inactive. After knock-down of Cpr50Ca [DRSC06372], the record shows induced reporter light, run 1, well a = 97170; induced reporter light, run 1, well b = 83455; control promoter light, run 1, well a = 1.22e5; control promoter light, run 1, well b = 1.21e5; uninduced reporter light, run 1, well a = 8780; inactive.

Knock-down of Cpr50Ca [DRSC06375] gave: induced reporter light, run 1, well a = 93445; induced reporter light, run 1, well b = 96950; control promoter light, run 1, well a = 1.28e5; control promoter light, run 1, well b = 92290; uninduced reporter light, run 1, well a = 9382; inactive. For Fic [DRSC03247], the entry reads induced reporter light, run 1, well a = 1.59e5; induced reporter light, run 1, well b = 1.59e5; control promoter light, run 1, well a = 1.74e5; control promoter light, run 1, well b = 1.57e5; uninduced reporter light, run 1, well a = 15560; inactive.

2 entries from above, set out differently.
Cpr50Ca [DRSC06375]
- induced reporter light, run 1, well a: 93445
- induced reporter light, run 1, well b: 96950
- control promoter light, run 1, well a: 1.28e5
- control promoter light, run 1, well b: 92290
- uninduced reporter light, run 1, well a: 9382
- call: inactive

Fic [DRSC03247]
- induced reporter light, run 1, well a: 1.59e5
- induced reporter light, run 1, well b: 1.59e5
- control promoter light, run 1, well a: 1.74e5
- control promoter light, run 1, well b: 1.57e5
- uninduced reporter light, run 1, well a: 15560
- call: inactive

Additional records follow.
For na [DRSC19639] the deposit lists induced reporter light, run 1, well a = 97625; induced reporter light, run 1, well b = 1.07e5; control promoter light, run 1, well a = 1.42e5; control promoter light, run 1, well b = 1.27e5; uninduced reporter light, run 1, well a = 13690; inactive. Xe7 [DRSC12307] scored induced reporter light, run 1, well a = 1.14e5; induced reporter light, run 1, well b = 1.39e5; control promoter light, run 1, well a = 1.97e5; control promoter light, run 1, well b = 1.18e5; uninduced reporter light, run 1, well a = 12015; inactive. After knock-down of Nepl4 [DRSC03239], the screen gave induced reporter light, run 1, well a = 78175; induced reporter light, run 1, well b = 83460; control promoter light, run 1, well a = 66565; control promoter light, run 1, well b = 73415; uninduced reporter light, run 1, well a = 5225; inactive. Depletion of Syx16 [DRSC20507] resulted in: induced reporter light, run 1, well a = 1.22e5; induced reporter light, run 1, well b = 1.16e5; control promoter light, run 1, well a = 1.05e5; control promoter light, run 1, well b = 57700; uninduced reporter light, run 1, well a = 9450; inactive.
